Results deposited as PubChem BioAssay AID720505 (Drosophila RNAi Screening Center, 2013).
Assay: 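Genes needed for store-operated calcium entry in fly cells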 (primary screen). System: Drosophila S2R+ cells. Knock-down reagent: long dsRNA against Drosophila genes. Challenge: thapsigargin (2 µM) in calcium-free buffer to empty internal stores, then 2 mM calcium added back. Detection: 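Fluo-4 signal in 384-well plates read on a FLIPR after thapsigargin (2 µM, calcium-free) store depletion and 2 mM calcium add-back; unnormalised mean endpoint per well; screen run twice, selected wells retested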. Scale: calcium signal and retest calcium signal: higher = more calcium entry after store depletion. Hit rule: 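Knock-downs counted as hits when calcium entry dropped relative to STIM1 positive and Rho1 negative controls present on each plate; roughly 1500 genes called, with reductions of differing size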. Calls: active = called as lowering calcium entry; inactive = not called.
In all, the deposit lists about 20,000 reagents; shown is a random part of those that have a named target and a result. In the full data, about 2,100 (10%) got an active call. 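Raw plate signals without normalisation; calls rest on control-based scores that were not deposited; replicate 2 separates called from uncalled poorly.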 A plus sign joins genes that one reagent is predicted to hit. Not stated in the record: the amount of reagent, the time to read-out.

nAChRalpha7 [DRSC20078] gave calcium signal, replicate 1 = 181; calcium signal, replicate 2 = 82.5; inactive.
With knock-down of nAChRalpha7 [DRSC20081], the screen gave calcium signal, replicate 1 = 147; calcium signal, replicate 2 = 80.6; inactive.
Against CG30116 [DRSC05935], the entry reads calcium signal, replicate 1 = 72.6; calcium signal, replicate 2 = 137; active.
Knock-down of CG30116 [DRSC06685] resulted in: calcium signal, replicate 1 = 168; calcium signal, replicate 2 = 199; inactive.
With knock-down of BomBc3 [DRSC15873], the record shows calcium signal, replicate 1 = 154; calcium signal, replicate 2 = 151; inactive.
For Npc2a [DRSC00698], the entry reads calcium signal, replicate 1 = 104; calcium signal, replicate 2 = 121; inactive.
Silencing of CG13124 [DRSC02220] gave: calcium signal, replicate 1 = 103; calcium signal, replicate 2 = 113; inactive.
Silencing of Rad51D [DRSC06840] gave: calcium signal, replicate 1 = 138; calcium signal, replicate 2 = 143; inactive.
Depletion of Ada2a + Polr2D [DRSC16206] resulted in: calcium signal, replicate 1 = 121; calcium signal, replicate 2 = 183; inactive.
Ada2a + Polr2D [DRSC21598] showed calcium signal, replicate 1 = 113; calcium signal, replicate 2 = 74.3; inactive.

A portion of the results above, as a working copy:
CG30116 [DRSC06685]: calcium signal, replicate 1 = 168; calcium signal, replicate 2 = 199; call = inactive
BomBc3 [DRSC15873]: calcium signal, replicate 1 = 154; calcium signal, replicate 2 = 151; call = inactive

The list goes on.
CG8066 [DRSC16374] showed calcium signal, replicate 1 = 152; calcium signal, replicate 2 = 154; inactive.
After knock-down of CG5402 [DRSC15792] the results were calcium signal, replicate 1 = 56.7; calcium signal, replicate 2 = 104; active.
Silencing of Sara [DRSC04653] resulted in: calcium signal, replicate 1 = 144; calcium signal, replicate 2 = 117; inactive.
Against AstA-R1 [DRSC17727], the values are calcium signal, replicate 1 = 67.6; calcium signal, replicate 2 = 179; active.
With knock-down of RpL34a [DRSC15964] the results were calcium signal, replicate 1 = 229; calcium signal, replicate 2 = 127; inactive.
Against DnaJ-1 [DRSC11145], the entry reads calcium signal, replicate 1 = 84.4; calcium signal, replicate 2 = 99.1; inactive.
Depletion of Kah [DRSC08515] gave: calcium signal, replicate 1 = 81.5; calcium signal, replicate 2 = 60.7; inactive.
Silencing of CG13716 [DRSC08325] resulted in: calcium signal, replicate 1 = 79.5; calcium signal, replicate 2 = 65.5; retest calcium signal, replicate 1 = 105; retest calcium signal, replicate 2 = 103; inactive.
CG13716 [DRSC22815] scored calcium signal, replicate 1 = 102; calcium signal, replicate 2 = 88.8; inactive.
Coq4 + frc [DRSC10381] showed calcium signal, replicate 1 = 130; calcium signal, replicate 2 = 134; inactive.
For Coq4 + frc [DRSC10382], the values are calcium signal, replicate 1 = 65.5; calcium signal, replicate 2 = 107; inactive.
Silencing of CG2121 [DRSC06819] gave: calcium signal, replicate 1 = 211; calcium signal, replicate 2 = 133; inactive.
Knock-down of CG2121 [DRSC06820] gave: calcium signal, replicate 1 = 98.5; calcium signal, replicate 2 = 159; inactive.
CG15306 [DRSC17993] gave calcium signal, replicate 1 = 40.1; calcium signal, replicate 2 = 87.3; active.
With knock-down of CG15306 [DRSC18240], the record shows calcium signal, replicate 1 = 91.3; calcium signal, replicate 2 = 77.5; retest calcium signal, replicate 1 = 5133; retest calcium signal, replicate 2 = 113; inactive.
After knock-down of Rala [DRSC18703], the record shows calcium signal, replicate 1 = 125; calcium signal, replicate 2 = 93.1; inactive.
CG5246 [DRSC15751] gave calcium signal, replicate 1 = 172; calcium signal, replicate 2 = 129; inactive.
With knock-down of HP5 [DRSC19773], the screen gave calcium signal, replicate 1 = 114; calcium signal, replicate 2 = 94.4; inactive.
